Patent publication US20240043389A1, “COMPOUNDS AND METHODS FOR INHIBITION OF BAX-MEDIATED CELL DEATH” (Albert Einstein College of Medicine, priority 2020, published 2024)
For at least one compound, name, drawing or mass did not settle the structure.

Amino acid sequences for entries named in this document (tags omitted).
UniProt Q07813, whole entry: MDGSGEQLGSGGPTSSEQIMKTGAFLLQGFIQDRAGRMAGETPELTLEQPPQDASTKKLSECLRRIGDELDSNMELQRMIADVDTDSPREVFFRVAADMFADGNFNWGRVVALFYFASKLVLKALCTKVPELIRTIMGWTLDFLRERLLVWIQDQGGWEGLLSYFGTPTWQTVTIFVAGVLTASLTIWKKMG

Tests used:
3T3 cells [1] = test: Caspase 3/7 activation assay (Caspase-Glo); assay type: cell-based, murine; settings: 1 μM ABT-263 and 1 μM S63845, 4 hours
BAXKO (BAX−/−) MEFs = test: Cytochrome c release assay in BAX-/- MEFs; assay type: cell-based, mouse; settings: 5 μM BIM-BH3, ELISA
BAKKO (BAK−/−) MEFs = test: Cytochrome c release assay in BAK-/- MEFs; assay type: cell-based, mouse; settings: 5 μM BIM-BH3, ELISA
BAK KO MEFs = test: Mitochondrial translocation of cytosolic BAX in cells; assay type: cell-based, mouse; settings: BIM BH3 or staurosporine (STS); 10 or 20 μM EO
BAX = biological target: T1, BAX (Mus musculus, UniProt Q07813); test: Cellular thermal shift assay (CETSA); assay type: cell-based; settings: BAKKO MEFs, 10 μM EO, 2 hours
T1 construct: BAK KO MEFs were seeded in a 10 cm dish for 18-24 hours; endogenous in cells; host or cells: BAK KO mouse embryonic fibroblasts

3T3 cells [2] = test: Cell viability assay (CellTiter-Glo); assay type: cell-based, murine; settings: 1 μM ABT-263 and 1 μM S63845, 24 hours
platelets [3] = settings: platelets isolated from treated patients; cited from earlier work
platelets [4] = test: Navitoclax-induced thrombocytopenia, platelet counts; assay type: in vivo, C57BL/6J mice; settings: ABT-263 25 mg/kg plus EO 100 mg/kg then 3 hrs later 50 mg/kg, oral gavage
[5] = tested on: BAK−/− mouse embryonic fibroblasts (MEFs); test: STS-induced caspase 3/7 assay in BAK-/- MEFs; assay type: cell-based; settings: MEFs expressing only BAX, 3 μM STS, 6 hr
[6] = tested on: human IPSC cardiomyocytes; test: Doxorubicin-induced apoptosis, RealTime Glo assay; assay type: cell-based; settings: 5 μM Doxorubicin, 10 μM EO

Which results are given for CC1=NN(c2ccc(C)c(C)c2)C(=O)/C1=N\Nc1cccc(-c2cccc(C(=O)O)c2)c1O [EO, eltrombopag]?
apoptosis mediated by caspase 3/7 activity (3T3 cells [1]): significant reduction of apoptosis; BIM-BH3 induced release of cytochrome c (BAXKO (BAX−/−) MEFs): no such effect; BIM-BH3 induced release of cytochrome c (BAKKO (BAK−/−) MEFs): significantly inhibited; BAX mitochondrial translocation in cells (BAK KO MEFs): capable of inhibiting BAX translocation; lowering of BAX TM (CETSA) (BAX): 9 °C; cell viability (3T3 cells [2]): dose-dependent rescue of cell viability; resistance of patient platelets to ABT-263 (Navitoclax) induced cell death (platelets [3]): increased resistance; navitoclax-induced platelet loss (platelets [4]): markedly inhibited platelet loss; STS-induced apoptosis mediated by caspase 3/7 activity [5]: inhibited STS-induced apoptosis; apoptosis (cell death) induced by doxorubicin [6]: capable of inhibiting apoptosis
